Data on three sequences can be found in PMC12844663.

The exact form of at least one protein or probe is not confirmed. At least one verdict rests on a figure or table, not on a statement of the authors. Protein sequences can lack the tags named with them.

For series [1], the target named is T1, CiWOX13-His (Carya illinoinensis) (UniProt A0A8T1PP68).
T1 sequence (looked up, limits assumed): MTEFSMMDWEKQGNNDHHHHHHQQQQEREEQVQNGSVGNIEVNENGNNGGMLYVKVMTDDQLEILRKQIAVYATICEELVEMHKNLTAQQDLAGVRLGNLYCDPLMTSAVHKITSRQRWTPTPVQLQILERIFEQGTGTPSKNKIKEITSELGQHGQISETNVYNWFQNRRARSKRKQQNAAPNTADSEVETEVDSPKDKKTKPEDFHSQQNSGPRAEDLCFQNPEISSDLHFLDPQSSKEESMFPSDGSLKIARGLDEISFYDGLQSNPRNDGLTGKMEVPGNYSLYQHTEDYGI
The series is described as follows: EMSA. To be noted: Chemiluminescent EMSA Kit (MH104, Coolaber) per manufacturer; unlabeled cold probes as competitor; pH and temperature not stated; recombinant protein; protein details: His; label: biotin.

For series [2], the target named is T2, CiWOX14-His (Carya illinoinensis) (UniProt A0A8T1PX11).
T2 sequence (looked up, limits assumed): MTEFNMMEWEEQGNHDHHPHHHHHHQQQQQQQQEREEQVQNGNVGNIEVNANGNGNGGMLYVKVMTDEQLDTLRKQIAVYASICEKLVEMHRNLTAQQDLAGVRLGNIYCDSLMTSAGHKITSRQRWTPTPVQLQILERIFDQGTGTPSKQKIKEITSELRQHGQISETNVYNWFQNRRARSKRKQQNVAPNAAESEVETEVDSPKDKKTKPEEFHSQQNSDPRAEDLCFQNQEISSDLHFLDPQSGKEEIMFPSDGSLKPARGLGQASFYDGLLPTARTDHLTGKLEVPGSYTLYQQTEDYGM
The series is described as follows: EMSA. The conditions noted are these: Chemiluminescent EMSA Kit (MH104, Coolaber) per manufacturer; unlabeled cold probes as competitor; pH and temperature not stated; recombinant protein; protein details: His; label: biotin.

With “GAGAATTTGCGGGACACGTAGTATTTTTCTTTTTT / AAAAAAGAAAAATACTACGTGTCCCGCGAAATTCTC [CiBGLU21-p3]”, the binding result in series [1] and in series [2] was “binds” in each case.
Consider “GGCACAACTGTATAGGACGTGTTCCACCACTGAACA (double strand) [CiBGLU21-p1]”, for which the binding result in series [1] and in series [2] was “binds” throughout.
On to “TAACAGAAGCATGAACACGACAAAGTTTGTAGAAAA / TTTTCTACAAACTTTGTCGTGTTCATGCTTCTGTTT [CiBGLU21-p2]”, for which the binding result in series [1] and in series [2] was “binds” throughout.
